The other results are listed elsewhere or left out. Shown are side measurements of this screen, not its main read-out; they come without a call. Compounds called inactive in the main read-out are mostly missing here. Potencies come from curve fits of mixed quality, noted in brackets.
Test: qHTS Assay for Lipid Storage Modulators in Drosophila S3 Cells;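 as to cell number change: cells counted by Cell Tracker Red CMTPX staining in the red channel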
Settings: BODIPY lipid droplet fluorescence, 18-24 h; for cell number change: measured here: cell count max response, cells fed with added oleic acid
Procedure, shortened: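 Laser-scanning cytometry quantifies lipid droplet accumulation (500–530 nm total intensity; droplet/cell object ratio) in oleic acid-fed (400 uM added) Drosophila S3 cells treated with a concentration series. 20 uM Triacsin C defined 100% inhibition.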

[1] = measured here: lipid fluorescence (Fed channel) AC50, cells fed with added oleic acid
[2] = measured here: cell number channel AC50, cells fed with added oleic acid

Cc1ccc(NS(=O)(=O)c2ccc3c(c2)CC(=O)N3)cc1F
cell number change: 11.3%
AC50 [1]: 29.1 µM [rising, single point]

Cc1nnc2c(NC3CCCCC3)nc3ccccc3n12
AC50 [1]: 0.651 µM [falling, full curve, poor fit]

CCN(CC)S(=O)(=O)c1ccc(C(=O)Nc2c3c(nn2C(C)(C)C)CS(=O)(=O)C3)cc1
AC50 [1]: 0.146 µM [falling, full curve, poor fit]

Cc1nnc(SCC(=O)NCc2cccs2)n1-c1ccccc1
AC50 [2]: 2.91 µM [rising, single point]
AC50 [1]: 6.51 µM [rising, single point]

COc1cccc(C(=O)NCCCN2CCN(CCCNC(=O)c3cccc(OC)c3)CC2)c1
AC50 [2]: 0.82 µM [rising, full curve]

c1c2c(cc3sc(N4CCOCC4)nc13)OCCO2
AC50 [1]: 6.51 µM [falling, partial curve]

CCC(CC)c1nnc(NC(=O)CC(C)c2ccccc2)s1 (stereo not drawn)
cell number change: 2.11%

COc1ccc(-c2csc(NC(=O)Nc3ccccc3)n2)cc1
cell number change: 1.81%
AC50 [1]: 0.092 µM [rising, full curve, poor fit]

CCOCCCN1CC(C(=O)NCCc2ccc(C)cc2)CC1=O (stereo not drawn)
cell number change: -19.8%

CC(C)c1ccc(NC(=S)Nc2cccc3ccccc23)cc1
cell number change: -15.3%
AC50 [2]: 0.366 µM [rising, single point]

O=C(COC(=O)CN=C1NS(=O)(=O)c2ccccc21)Nc1ccccc1OC(F)F
cell number change: 16.1%

COC(=O)c1cccc(Nc2ncnc3ccc(C)cc23)c1
cell number change: 68.8%
AC50 [2]: 23.1 µM [rising, partial curve, poor fit]
AC50 [1]: 4.11 µM [rising, partial curve]

O=C(O)CC(c1ccc(Cl)cc1)N1C(=O)CCC1=O (stereo not drawn)
cell number change: -13.3%
AC50 [1]: 0.00411 µM [falling, full curve, poor fit]

O=S(=O)(Nc1nc2ccccc2nc1N1CCc2ccccc2C1)c1ccc(Br)cc1
cell number change: -10.3%
AC50 [1]: 0.206 µM [rising, full curve]

O=C(/C=C/NNC(=O)c1ccccc1)c1ccccc1
cell number change: 7.56%
AC50 [1]: 2.31 µM [rising, partial curve]

Nc1nc(C(c2ccccc2)c2ccccc2)cs1
cell number change: -7.89%

O=C(CSc1nc(O)cc(=O)n1C1CCCC1)Nc1cccc(Cl)c1Cl
cell number change: 22%
AC50 [1]: 32.6 µM [rising, single point]

CC(C)C(=O)Nc1sc2c(c1C(N)=O)CCN(Cc1ccccc1)C2
cell number change: -4.61%
AC50 [1]: 29.1 µM [falling, single point]

O=C(COc1cccnc1[N+](=O)[O-])Nc1ncc(Cl)cc1Cl
cell number change: -6.74%
AC50 [1]: 32.6 µM [falling, single point]

O=C1CC(c2ccco2)Cc2c1cnn2-c1nc2ccccc2s1 (stereo not drawn)
cell number change: 12.3%
AC50 [1]: 6.51 µM [rising, single point]

O=C(CCN1CCCCC1)NNC(=O)C12CC3CC(CC(C3)C1)C2
AC50 [1]: 4.11 µM [falling, partial curve]

Oc1ccc(/C=C/c2nc(-c3ccccc3O)n(-c3ccccc3)n2)cc1
cell number change: -52.6%
AC50 [2]: 10.3 µM [falling, partial curve, poor fit]
AC50 [1]: 29.1 µM [falling, single point]

O=C(Cc1ccc(Cl)cc1)Nc1cccc(S(=O)(=O)Nc2ccccc2F)c1
cell number change: 8.03%
AC50 [1]: 3.66 µM [rising, partial curve, poor fit]

CN(CC(=O)Nc1ccccc1Sc1ccccc1)Cc1nc2ccccc2c(=O)[nH]1
cell number change: -12.8%
AC50 [1]: 0.116 µM [falling, single point]

Cc1ccc(N=Cc2c(O)cc(C)oc2=O)c(C)c1
cell number change: -35.4%
AC50 [2]: 0.92 µM [falling, full curve]
AC50 [1]: 2.59 µM [falling, full curve]

CCOC(=O)N1CCC(NC(=O)CC2C(=O)NCCN2Cc2ccccc2)CC1 (stereo not drawn)
cell number change: 11%
AC50 [1]: 29.1 µM [rising, single point]

CC1=NN(C(=O)c2ccc(Cn3nc(C)c([N+](=O)[O-])c3C)cc2)C(O)(C(F)(F)F)C1 (stereo not drawn)
AC50 [2]: 2.91 µM [rising, partial curve, poor fit]

CCC1CCCCN1C(=O)COc1ccc(F)cc1 (stereo not drawn)
cell number change: -0.713%
AC50 [1]: 0.517 µM [rising, single point]

Cc1nc2ccccc2nc1SCC(=O)c1ccccc1
cell number change: -21.5%
AC50 [1]: 16.4 µM [falling, single point]

COc1ccc2cc(C(=O)NCc3ccccc3CN3CCCC3)ccc2c1
cell number change: -15.4%
AC50 [1]: 7.31 µM [falling, partial curve]

C[C@H](NC(=O)N1CCn2c1nc1ccccc12)C(=O)NCc1ccccc1
cell number change: -5.19%
AC50 [1]: 29.1 µM [falling, single point]

O=C(c1ccc(Br)cc1)N1CCC(C(=O)N2CCN(c3ccccc3)CC2)CC1
cell number change: -19.1%
AC50 [1]: 8.2 µM [falling, partial curve]

CSc1ncccc1C(=O)Nc1nc2c(C)cccc2s1
cell number change: -35.2%
AC50 [2]: 32.6 µM [falling, single point]

O=S(=O)(NCc1ccco1)c1ccc2c(c1)Cc1ccccc1-2
AC50 [1]: 0.58 µM [rising, single point]

CC(C)(C)C(=O)Nc1ccccc1C(=O)Nc1cccnc1
cell number change: -13.2%
AC50 [1]: 29.1 µM [falling, single point]

Cc1occc1C(=O)NNC(=O)C1CCCC1
cell number change: -36.6%
AC50 [2]: 0.00461 µM [falling, full curve, poor fit]

CCCCOc1ccc(-c2nc(=S)[nH][nH]2)cc1
AC50 [2]: 0.731 µM [falling, single point]
AC50 [1]: 0.731 µM [falling, single point]

COc1ccc2nc(NC(=O)CSc3nnc4n3C(C)(C)Cc3ccccc3-4)sc2c1
cell number change: 4.22%

Cc1ccc(NC(=O)CN(C)C(=O)c2ccc(OCc3cn4ccccc4n3)cc2)cc1
cell number change: 4.8%
AC50 [1]: 29.1 µM [rising, single point]

CN(Cc1ccccn1)C(=O)CC1C(=O)NCCN1Cc1ccc(F)cc1Cl (stereo not drawn)
cell number change: 95.7%
AC50 [2]: 18.4 µM [rising, partial curve]

CC(=O)NCCc1ccc(-c2csc(NC(=O)C3CC(=O)N(C4CCCC4)C3)n2)cc1 (stereo not drawn)
cell number change: 73.9%
AC50 [2]: 13 µM [rising, partial curve]

CC(=O)N/C(=C/c1ccc([N+](=O)[O-])cc1)C(=O)O
cell number change: -22.1%

OC(C#CCN1CCCCC1)c1ccccc1 (stereo not drawn)
cell number change: -2.42%
AC50 [1]: 1.84 µM [falling, full curve, poor fit]

CN(CCc1ccccc1)C1CCCN(S(=O)(=O)CC(F)(F)F)C1 (stereo not drawn)
cell number change: 19.4%
AC50 [1]: 29.1 µM [rising, single point]

O=C(/C=C/c1ccccc1)Nc1ccc(N2CCCCC2)cc1
cell number change: 60.4%
AC50 [2]: 20.6 µM [rising, single point]

COc1ccc(CNc2ncnc3c2[nH]c2ccccc23)cc1
cell number change: -50.7%
AC50 [2]: 16.4 µM [falling, single point]
AC50 [1]: 18.4 µM [falling, partial curve]

CC(=O)Nc1ccc(S(=O)(=O)Nc2cc(C)ccn2)cc1
cell number change: -25%
AC50 [2]: 0.116 µM [falling, full curve]
AC50 [1]: 0.082 µM [falling, full curve]

O=C1CC(c2ccccc2)Cc2nc(NC3CC3)ncc21 (stereo not drawn)
cell number change: -32.1%
AC50 [2]: 18.4 µM [falling, partial curve]
AC50 [1]: 32.6 µM [falling, partial curve]

Cc1cccc(C(=O)OCC(=O)Nc2ccccc2C(=O)NC2CC2)c1
cell number change: 11.2%

Cc1ccc(/C(O)=C/C(=O)C(=O)NNC(=O)C(O)(c2ccccc2)c2ccccc2)cc1
cell number change: -41.3%
AC50 [2]: 25.9 µM [falling, single point]

COc1nc(N)nc2nc[nH]c12
cell number change: 1.26%

Cc1ccc(OC(C)C(=O)N2CC(=O)Nc3ccccc32)cc1 (stereo not drawn)
cell number change: -3.95%
AC50 [2]: 0.82 µM [rising, full curve, poor fit]

Cc1nnc(C)c2c(C)n(N)c(C)c12
cell number change: 17.5%
AC50 [2]: 0.164 µM [falling, full curve, poor fit]

CCc1nc2oc3ccccc3c(=O)c2c(=O)n1Cc1ccc(OC)cc1
cell number change: 7.5%
AC50 [2]: 0.00517 µM [falling, full curve, poor fit]
AC50 [1]: 29.1 µM [falling, single point]

COc1ccc(C2(C)NC(=O)N(CC(=O)c3cc(C)n(C4CC4)c3C)C2=O)cc1 (stereo not drawn)
cell number change: -1.04%
AC50 [1]: 2.91 µM [rising, partial curve, poor fit]

O=C(Nc1ccc(N2CCCCC2)cc1)c1cccnc1
cell number change: 17.9%

Fc1ccc(Oc2nc(-c3ccccn3)nc3ccccc23)cc1
cell number change: -20.2%
AC50 [2]: 0.731 µM [falling, full curve]

Cc1nc2ccc(NC(=O)CCS(=O)(=O)c3ccccc3)cc2s1
cell number change: -38.4%
AC50 [2]: 0.92 µM [falling, full curve, poor fit]
AC50 [1]: 0.291 µM [falling, full curve]

O=C(O)C1CCCCN1S(=O)(=O)c1ccc2ccccc2c1 (stereo not drawn)
cell number change: -5.51%
AC50 [2]: 1.64 µM [falling, partial curve]
AC50 [1]: 0.58 µM [falling, single point]

O=C(COC(=O)c1cc(Br)ccc1O)NNC(=O)c1ccc(Cl)cc1
cell number change: 0.314%
AC50 [2]: 0.92 µM [falling, partial curve]
AC50 [1]: 1.3 µM [falling, partial curve]

CC(C)[C@H](NC(=O)C1CCCC1)c1nc2ccccc2[nH]1
cell number change: 63.5%
AC50 [2]: 29.1 µM [rising, single point]
AC50 [1]: 4.11 µM [rising, single point]

Cc1cc(NS(=O)(=O)c2ccc(NC(=S)NC(=O)c3cccc(S(=O)(=O)N(C)C)c3)cc2)no1
cell number change: -1.76%
